To fix the notation:
B1: tRNA (parent)
chain: GUUCCGUUGGCGUAAUGGUAACGCGUCUCCCUCCUAAGGAGAAGACUGCGGGUUCGAGUCCCGUACGGAACG

Variants at the floor of the assay are shown more often than the library holds them.

In this data set the parent is B1. The data set can be described thus: yeast fitness relative to wild type (ratio to wild type); higher = fitter; tRNA-Arg(CCU), competitive growth, 37 C, YPD. The essentials: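 Variants of the tRNA-Arg(CCU) gene, chemically synthesised with a 3% per-site mutation rate at 69 sites, were placed at the native genomic locus in Saccharomyces cerevisiae. The pooled strains were competed in YPD at 37°C for 24 hours in six parallel replicates. Gene amplicons from the start population and from each end population were read by 100-nucleotide paired-end sequencing. Darwinian fitness relative to wild type came from changes in genotype frequencies; genotypes needed ≥ 100 starting reads, and estimates < 0.5 were set to 0.5.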
With GUUCCGUUGGGGUAAUGGUAACGCGUCUCCCUCCUAAGGAGUAGACUGCGGGUUCGAGACCCGUACGGAACG [C11G A42U U59A], the yeast fitness was at most 0.5.
For GCUCCGUUGGCGUAAUGGUAACGCGUCUCCCUCCUAAGGAGAAGAUUGCGGGUUCGAGCCCCGUACGGAACG [U2C C46U U59C] the value was 0.705.
Take GUUGCGUUGGCGUAAUAGUAAAGCGUCUCCCUCCUAAAGAGAAGACUGCGGGUUCGAGUCCCGUACGGAACG [C4G G17A C22A G38A]: the yeast fitness was found to be 0.638.
As for GUUCCGUGGGCGUAAUGGUCACGCGUCUCCCUCCCAAGGAGAAGACUGAGGGUUCGAGUCCCGUACAGAACG [U8G A20C U35C C49A G67A], the figure is at most 0.5; as for GUUCCAUUGGCGUAAUGGUAACGCGUCUCUCUCCUAAGGAGAAGACUGCGAUUUCCAGUCCCGUACGGAACG [G6A C30U G51A G52U G56C], at most 0.5; as for GAUCCGUUGGCCUAAUGGUAACGCGUCUCCCACCUAAGGAGAACACUGCGGGUUCGAGUCCCGUACGGAACG [U2A G12C U32A G44C], at most 0.5.
In the case of GUUCCGUUGGCGUAAUGGUAACGCGAAACCCUCUUAAGGAGAAGACUGCGGGUUCGAGUCCCGUACGGAACG [U26A C27A U28A C34U], the yeast fitness is at most 0.5.
As for GUUCCGUUGGCGUAAUGGUAAGGCGUGUCCUUCCUAAGGAGAAGACUGCGGGUUCGAGCCCUGUACGUAACG [C22G C27G C31U U59C C62U G68U], the figure is at most 0.5; as for GUUCUGUUGGGGUAAUGGUAACGCGUCUCCCUCCUAAGGAGAAGACUGAGGGCUCGAGUCCCGUACGGAACG [C5U C11G C49A U53C], at most 0.5; as for GUUCUGUUGGCGUAAUGGUAAGGCGUCUACCUCCUAAGGAGAAGUCUGCGGGUUCGAGUCCCGUACGGACCG [C5U C22G C29A A45U A70C], at most 0.5.
As for GUUCCGUUGGCGUAAUGGUAACGCGUGUCCCUCCUAAGGAGAAGACUGCGGGUUCGUGUGCCGUACGCAACG [C27G A57U C60G G68C], the figure is at most 0.5.
As for GUUCCGUUGGCGUAAUGGUAGCGCGUCUCCCUCCUCAGGAGAAGAGUGCGGGUUCGAGUCCCGUUCGGAACG [A21G A36C C46G A65U], the figure is at most 0.5; as for GUUCCGUUGGCGUGAUGGUAACGCGUCUCCCUCCUAAGGAGCAGACUGCGGGUUCCAGUCCCGUACAGAACG [A14G A42C G56C G67A], at most 0.5; as for GUUCCGUUGGCAGAAUGGUAACGCGUCUCCCUCCUAAGGAGAAGACUGCGGGUUCGAGUCCCGUACGGAACG [G12A U13G], 0.869.
Turning to GUUCCGUUGGCGUAAUGAUAACGCGUUUCCCUCCUAAGGAGAAGACUGCGGGCUCGAGUCCCGUACGGAACG [G18A C27U U53C], the yeast fitness was at most 0.5.
Regarding GUUCCGUUGGCGUAAUCGUAACGCGUCUCCCUCCUAAGGAGUAGACUGCAGGUUCGAGUCCCGUACGGAACG [G17C A42U G50A], the yeast fitness was at most 0.5.
For GUUCCCUUGGCGUAAUGGUAACGUGUCUCCCUCCUAACGGGAAGACUGCGGGUUCGAGUCCCGUACGGAACG [G6C C24U G38C A40G] the value was at most 0.5.
As for GUUCCGUUGGCGUAAUGGCAACGCGUCUCCUUGCUAAGGAAAAGACUGGGGGUCCGAGUCCCAUACGGAACG [U19C C31U C33G G41A C49G U54C G63A], the figure is at most 0.5.
As for GCUCCGUUGGCGUAAUGGUAACGCAUCUCCCUCCUAAGGAGUAGACUGCGGGUUCGAGUCCCGUACGGAACG [U2C G25A A42U], the figure is 0.561.
For GUUCCGUUAGCGUAAUGGUAACGUGUCUCCCUCCUAAGGUGAAGACUGCGGGUUCGCGUCCCGUACGGAACG [G9A C24U A40U A57C], the yeast fitness was at most 0.5.
As for GUUCCGUUGGCGUAAUGGUAACGCGUCUCCCUCCUAAGGAGAAGACUGGGGGUUCGAGUUCCGUACGGAACG [C49G C60U], the figure is 0.692.
As for GUUCCCUUGGAGUAAUGGUGACGCGUCUCCCUCCUAAGGAGAAGACUCCGGGUUCGAGUCCCGUACGGAACG [G6C C11A A20G G48C], the figure is at most 0.5; as for GUUCCGUUGGCGUAAUGGUAACGCGUCUCCCUCAUAAGGAAAAGACUGCGGGUUCGAGGCCCGUACGGAACG [C34A G41A U59G], at most 0.5.
For GUUCCGUUGGCGUAAUGGUAACGCGUCUCUCUCCUAAGCAGAAGACUGCGGGUUCGAGUCCCGUACGGAACG [C30U G39C] the value was 0.682; for GUUCCGUUGGCGUAAUGGUAACGUGUUUCCCUCCUAAGGAGAAGACUGCGGGGUCGAGUACCGUACGGAGCG [C24U C27U U53G C60A A70G], at most 0.5.
In the case of GUUUCGUUGGCGUAAUGGUAACGCGUCUCGCUCCUAAGGAGAAGACUGCGGGCUCGAGUAACGUAGGGAACG [C4U C30G U53C C60A C61A C66G], the yeast fitness is at most 0.5.
As for GUUCCGUUGCCGUAAUGGUGACGCGUCUCCCUCCUAAGGAGAAGACUGCGGGUUCGAGUCCCGUACGGAACG [G10C A20G], the figure is 0.775; as for GUUCCAUUGGCGUAAUGGUAACGCGUCUCCCUCCUAAGGCGAAGCCUGCGGGUUCGAGUCCCGUUCGGAACG [G6A A40C A45C A65U], at most 0.5; as for GUUCGGUUGGCGUAAUGGUAACGCGUCUCCCUCCUAAGGAGAUGACUGCGGGUUCGAGUCCCGUACGUAACG [C5G A43U G68U], at most 0.5.
For GUUCCGUUGGCGUAAUGGUAAUGCGUCUCCCUCCUAAGGAGAAGACUGCGGGUUCGAGUGCCGUACGGAGCG [C22U C60G A70G] the value was at most 0.5.
Take GUUUCGUUGGUGUAAUGGUAACCCGUCUCCUUCCUAAGGAGAAGACUGCGGGUUCGAGUCCCGUACGGAACG [C4U C11U G23C C31U]: the yeast fitness is at most 0.5.
For GUUCCGUUGGUGUAAUGGUAACGCGUCUCCCUCCUAAGGAGUAGACUGCGGGUUCGUCUCCCGUACGGAACG [C11U A42U A57U G58C] the value was at most 0.5.
As for GUUCCGUUGGCGUAAUGGUAACGCAUCUCCUUCUUAAGGAGAAGACUGCGGGUUCGCGUCCCGUACGGAACG [G25A C31U C34U A57C], the figure is at most 0.5.
As for GUUCCGUUGGCGUAAUGGUUACGCGUCUGCCUCCUAAGGAGAAGACUGGGGGUUCGAGUCCCCUAAGGAACG [A20U C29G C49G G63C C66A], the figure is at most 0.5; as for GUUCCGUUGGAGCAAUGGUAACGCGUAUCCCUCCUAAGGACAAGACUGCGGGUUCGAGUCCCGUACGGAACG [C11A U13C C27A G41C], at most 0.5; as for GUUACGUUGGCGUAAUGGUAACGCGUCUCUCUCCUAAGGAGAAGACUGCGGGUUCGGGUCCCGUACGGAACG [C4A C30U A57G], at most 0.5.
In the case of GUUCCGUUGGCGUAAUGGUAACGCGUCUUCCUCCUAAGGAGAAGACUGUGGGUUCGAGUCCCGGACGGAACG [C29U C49U U64G], the yeast fitness is at most 0.5.

The values above are taken from the RNAGym collection of RNA variant scans (doi:10.1126/science.aae0568).
